Experimental data as given in article PMC8269107, “Lipidation of Temporin-1CEb Derivatives as a Tool for Activity Improvement, Pros and Cons of the Approach” (International Journal of Molecular Sciences, 2021).

What was measured:
[1] = Circular dichroism in POPG; format: physicochemical; conditions: CD, 1.31 mM POPG in PBS pH 7.4, peptide 0.13 mM
[2] = ITC, binding to zwitterionic membrane; conditions: POPC LUVs, 25 °C; for n: stoichiometry (phospholipids per peptide)
Method: The ITC experiments were performed according to the previously reported protocol in PBS (pH 7.4) at 25 °C using an AutoITC isothermal titration calorimeter (MicroCal Inc., Northampton, USA) with a 1.4491-mL sample and reference cells filled with distilled water. In each experiment, 29 injections of 10.02 µL each (2 µL for the first only) of a liposome solution at a concentration of 1.31 mM were added into a 0.05 mM and/or 0.1 mM peptide solution. An initial 2-μL injection was discarded from each dataset in order to remove the effect of titrant diffusion across the syringe tip during the equilibration process. Each injection lasted 20 s. The titrant was injected at 4 min intervals to ensure that the titration peak returned to the baseline before the next injection. To ensure a homogeneous mixing in the cell, the stirrer speed was kept constant at 300 rpm.
A complete binding of the peptide to lipid vesicles provides the possibility for determination of the total binding enthalpy (∆H) as well as a binding constant (Ka), reflecting the affinity of the lipopeptide to liposomes, stoichiometry of binding (n), that is, the number of phospholipids per peptide, by fitting the titration result data to one set of sites’ model using Origin 7 from MicroCal. Changes in entropy (∆S) and the Gibbs free energy (∆G) were calculated from Equation (1), where factor 55.5 is the molar concentration of water, R is the gas constant (1.986 cal·mol^−1·K^−1) and T is the absolute temperature:∆G = -RTln(55.5Ka) = ∆H-T∆S(1)
The liposomes for ITC experiments were made of POPC or POPG lipids. The lipids were dissolved in a chloroform:methanol (2:1; v/v) mixture, evaporated under nitrogen and desiccated under vacuum overnight to remove any residual solvents. Afterwards, the dry lipid film was resuspended in a phosphate buffer solution and shaken for 2 h at room temperature (phase transition point, Tm = −2 °C) to obtain multilamellar vesicles (MLVs). Finally, the MLV suspension was extruded through polycarbonate membranes (100 nm in diameter, Whatman International Ltd., Dorset, UK) using a mini-extruder (Avanti Polar Lipids, Inc., Alabaster, AL, USA) to obtain large unilamellar vesicles (LUVs) used in titration experiments.

Compound | α-Helicity [1] [%] | TΔS [2] [kcal/mol] | ΔG [2] [kcal/mol] | ΔH [2] [kcal/mol] | n [2]
CC[C@H](C)[C@H](NC(=O)COCCOCCNC(=O)[C@H](Cc1c[nH]cn1)NC(=O)CCNC(=O)CCCCCN)C(=O)N[C@@H](CCCCN)C(=O)N[C@@H](CCCCN)C(=O)N[C@H](C(=O)N[C@@H](CC(C)C)C(=O)N[C@@H](CO)C(=O)N[C@@H](CCCCN)C(=O)N[C@H](C(=O)N[C@@H](CCCCN)C(=O)N[C@@H](CCCCN)C(=O)N[C@@H](CC(C)C)C(=O)N[C@@H](CC(C)C)C(N)=O)[C@@H](C)CC)[C@@H](C)CC [AHX-CAR-PEG-DK5] (H-[Ahx][βAla]H[AEEA]IKKILSKIKKLL-NH2) | 87.5 |  |  |  | 
CC[C@H](C)[C@H](NC(=O)CCCCCN)C(=O)N[C@@H](CCCCN)C(=O)N[C@@H](CCCCN)C(=O)N[C@H](C(=O)N[C@@H](CC(C)C)C(=O)N[C@@H](CO)C(=O)N[C@@H](CCCCN)C(=O)N[C@H](C(=O)N[C@@H](CCCCN)C(=O)N[C@@H](CCCCN)C(=O)N[C@@H](CC(C)C)C(=O)N[C@@H](CC(C)C)C(N)=O)[C@@H](C)CC)[C@@H](C)CC [AHX-DK5] (H-[Ahx]IKKILSKIKKLL-NH2) | 85.6 |  |  |  | 
CCCCC(=O)NCCC(=O)N[C@@H](Cc1c[nH]cn1)C(=O)NCCOCCOCC(=O)N[C@H](C(=O)N[C@@H](CCCCN)C(=O)N[C@@H](CCCCN)C(=O)N[C@H](C(=O)N[C@@H](CC(C)C)C(=O)N[C@@H](CO)C(=O)N[C@@H](CCCCN)C(=O)N[C@H](C(=O)N[C@@H](CCCCN)C(=O)N[C@@H](CCCCN)C(=O)N[C@@H](CC(C)C)C(=O)N[C@@H](CC(C)C)C(N)=O)[C@@H](C)CC)[C@@H](C)CC)[C@@H](C)CC [C5-CAR-PEG-DK5] ({Pentanoyl-βAla}-H[AEEA]IKKILSKIKKLL-NH2) | 94.7 |  |  |  | 
CCCCCCCCCCCC(=O)NCCC(=O)N[C@@H](Cc1c[nH]cn1)C(=O)NCCOCCOCC(=O)N[C@H](C(=O)N[C@@H](CCCCN)C(=O)N[C@@H](CCCCN)C(=O)N[C@H](C(=O)N[C@@H](CC(C)C)C(=O)N[C@@H](CO)C(=O)N[C@@H](CCCCN)C(=O)N[C@H](C(=O)N[C@@H](CCCCN)C(=O)N[C@@H](CCCCN)C(=O)N[C@@H](CC(C)C)C(=O)N[C@@H](CC(C)C)C(N)=O)[C@@H](C)CC)[C@@H](C)CC)[C@@H](C)CC [C12-CAR-PEG-DK5] ({Lauroyl-βAla}-H[AEEA]IKKILSKIKKLL-NH2) | 86.3 | 9.89 ± 0.19 | -9.71 ± 0.19 | 0.18 ± 0.01 | 1.36 ± 0.04
CCCCCCCCCCCCCCCC(=O)NCCC(=O)N[C@@H](Cc1c[nH]cn1)C(=O)NCCOCCOCC(=O)N[C@H](C(=O)N[C@@H](CCCCN)C(=O)N[C@@H](CCCCN)C(=O)N[C@H](C(=O)N[C@@H](CC(C)C)C(=O)N[C@@H](CO)C(=O)N[C@@H](CCCCN)C(=O)N[C@H](C(=O)N[C@@H](CCCCN)C(=O)N[C@@H](CCCCN)C(=O)N[C@@H](CC(C)C)C(=O)N[C@@H](CC(C)C)C(N)=O)[C@@H](C)CC)[C@@H](C)CC)[C@@H](C)CC [C16-CAR-PEG-DK5] ({Palmitoyl-βAla}-H[AEEA]IKKILSKIKKLL-NH2) | 85.2 |  |  |  | 
CCCCC(=O)N[C@H](C(=O)N[C@@H](CCCCN)C(=O)N[C@@H](CCCCN)C(=O)N[C@H](C(=O)N[C@@H](CC(C)C)C(=O)N[C@@H](CO)C(=O)N[C@@H](CCCCN)C(=O)N[C@H](C(=O)N[C@@H](CCCCN)C(=O)N[C@@H](CCCCN)C(=O)N[C@@H](CC(C)C)C(=O)N[C@@H](CC(C)C)C(N)=O)[C@@H](C)CC)[C@@H](C)CC)[C@@H](C)CC [Compound C5-DK5] (Pentanoyl-IKKILSKIKKLL-NH2) | 89.6 |  |  |  | 
CCCCCCCCCCCC(=O)N[C@H](C(=O)N[C@@H](CCCCN)C(=O)N[C@@H](CCCCN)C(=O)N[C@H](C(=O)N[C@@H](CC(C)C)C(=O)N[C@@H](CO)C(=O)N[C@@H](CCCCN)C(=O)N[C@H](C(=O)N[C@@H](CCCCN)C(=O)N[C@@H](CCCCN)C(=O)N[C@@H](CC(C)C)C(=O)N[C@@H](CC(C)C)C(N)=O)[C@@H](C)CC)[C@@H](C)CC)[C@@H](C)CC [Compound C12-DK5] (Lauroyl-IKKILSKIKKLL-NH2) | 83.7 | 8.56 ± 0.26 | -8.38 ± 0.26 | 0.18 ± 0.03 | 2.65 ± 0.31
CCCCCCCCCCCCCCCC(=O)N[C@H](C(=O)N[C@@H](CCCCN)C(=O)N[C@@H](CCCCN)C(=O)N[C@H](C(=O)N[C@@H](CC(C)C)C(=O)N[C@@H](CO)C(=O)N[C@@H](CCCCN)C(=O)N[C@H](C(=O)N[C@@H](CCCCN)C(=O)N[C@@H](CCCCN)C(=O)N[C@@H](CC(C)C)C(=O)N[C@@H](CC(C)C)C(N)=O)[C@@H](C)CC)[C@@H](C)CC)[C@@H](C)CC [Compound C16-DK5] (Palmitoyl-IKKILSKIKKLL-NH2) | 100 |  |  |  | 

Where a SMILES comes first, the peptide text is derived from it. [ ]: non-standard residue; d: D form. The star is where a group is joined. Palmitoyl = CCCCCCCCCCCCCCCC(=O)*; Lauroyl = CCCCCCCCCCCC(=O)*; Pentanoyl = CCCCC(=O)*; AEEA = NCCOCCOCC(=O)O; Ahx = NCCCCCC(=O)O; βAla = NCCC(=O)O
